Measurements: PMC10804696
No constants are given. Whether binding was seen depends on the method and setting. Binding seen in cells or lysates may run through a third protein. Some results given as binding are weak or reduced against the parent protein; the word gives no strength.

Chains of the proteins cited; added tags and fusions are not shown. Residues count along the entry.
UniProt P37173, residues 23-567: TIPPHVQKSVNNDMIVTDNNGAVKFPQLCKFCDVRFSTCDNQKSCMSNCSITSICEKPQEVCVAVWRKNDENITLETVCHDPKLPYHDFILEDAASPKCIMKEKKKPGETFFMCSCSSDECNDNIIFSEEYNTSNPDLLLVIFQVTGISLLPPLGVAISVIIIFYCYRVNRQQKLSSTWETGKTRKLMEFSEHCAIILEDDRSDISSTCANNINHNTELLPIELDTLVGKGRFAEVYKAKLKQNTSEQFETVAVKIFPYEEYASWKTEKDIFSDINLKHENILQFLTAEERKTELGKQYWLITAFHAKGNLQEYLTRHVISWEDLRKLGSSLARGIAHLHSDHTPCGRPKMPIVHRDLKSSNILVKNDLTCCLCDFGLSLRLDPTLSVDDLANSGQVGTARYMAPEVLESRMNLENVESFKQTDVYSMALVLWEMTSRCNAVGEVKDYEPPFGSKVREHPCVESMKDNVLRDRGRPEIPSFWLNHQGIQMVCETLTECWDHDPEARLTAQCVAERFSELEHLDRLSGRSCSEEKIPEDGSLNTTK

Biological target: TGF-β receptor II (TGFBR2) (human (endogenous in NHDF)) (UniProt P37173)
Assay: co-IP; NHDF cultured with 10% FBS DMEM, lysed in 0.1% Triton X-100, 0.1 M Tris pH 8.1 with phosphatase and protease inhibitors; 1000 μg lysate with 1 μg anti-TEM1 antibody (or normal rabbit IgG) and protein A and G agarose beads at 4 °C overnight; Western blot; reverse precipitation with a TGFBR2 antibody

binding: binds
B1: Tumor endothelial marker 1 (TEM1) (protein, UniProt Q9HCU0-1 18-757)
chain: QDPWAAEPRAACGPSSCYALFPRRRTFLEAWRACRELGGDLATPRTPEEAQRVDSLVGAGPASRLLWIGLQRQARQCQLQRPLRGFTWTTGDQDTAFTNWAQPASGGPCPAQRCVALEASGEHRWLEGSCTLAVDGYLCQFGFEGACPALQDEAGQAGPAVYTTPFHLVSTEFEWLPFGSVAAVQCQAGRGASLLCVKQPEGGVGWSRAGPLCLGTGCSPDNGGCEHECVEEVDGHVSCRCTEGFRLAADGRSCEDPCAQAPCEQQCEPGGPQGYSCHCRLGFRPAEDDPHRCVDTDECQIAGVCQQMCVNYVGGFECYCSEGHELEADGISCSPAGAMGAQASQDLGDELLDDGEDEEDEDEAWKAFNGGWTEMPGILWMEPTQPPDFALAYRPSFPEDREPQIPYPEPTWPPPLSAPRVPYHSSVLSVTRPVVVSATHPTLPSAHQPPVIPATHPALSRDHQIPVIAANYPDLPSAYQPGILSVSHSAQPPAHQPPMISTKYPELFPAHQSPMFPDTRVAGTQTTTHLPGIPPNHAPLVTTLGAQLPPQAPDALVLRTQATQLPIIPTAQPSLTTTSRSPVSPAHQISVPAATQPAALPTLLPSQSPTNQTSPISPTHPHSKAPQIPREDGPSPKLALWLPSPAPTAAPTALGEAGLAEHSQRDDRWLLVALLVPTCVFLVVLLALGIVYCTRCGPHAPNKRITDCYRWVIHAGSKSPTEPMPPRGSLTGVQTCRTSV
